Data as given in PubChem BioAssay AID1259254 (NCATS, 2017).

Assay: 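Finding genes that stop cells copying their DNA twice in one cycle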 (primary screen)
Cell system: human HCT116 colorectal cancer cells
Reagents: single siRNA against human genes
Time to read-out: 3 days
Measurement: 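Nuclei stained with Hoechst and imaged; cell-cycle phase assigned by DNA content; G2 share scaled per plate, non-targeting siRNA 0%, GMNN siRNA 100%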
Reading the numbers: G2 robust z-score: higher = more G2 cells, more excess DNA replication
Rule for the call: 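Active siRNAs have a G2 robust z of 5 or more median absolute deviations over the median, which in these data means about 38% or higher of GMNN control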
In all, the deposit lists about 59,000 reagents; this is a random part of them. In the full data, about 1,550 (2.6%) are marked active. 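G2 share is only a proxy for re-replication; each gene was hit by three separate siRNAs, and active genes were retested.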 Not all columns of the deposit are shown. The record does not give: the amount of reagent.

GPR78 [SID160724364] showed G2 robust z-score 0.0874; inactive.
With knock-down of GPR78 [SID160724365], the screen gave G2 robust z-score -0.357; inactive.
Silencing of GPR78 [SID160724366] resulted in: G2 robust z-score -0.432; inactive.
For PHRF1 [SID160746519], the values are G2 robust z-score 0.79; inactive.
Knock-down of PHRF1 [SID160746520] gave: G2 robust z-score 0.197; inactive.
After knock-down of PHRF1 [SID160746521], the screen gave G2 robust z-score -0.302; inactive.
Silencing of FHDC1-AS1 [SID160734644] gave: G2 robust z-score -0.177; inactive.
FHDC1-AS1 [SID160773252] showed G2 robust z-score -0.0662; inactive.
For FHDC1-AS1 [SID160773254], the values are G2 robust z-score -0.132; inactive.
ANKMY1 [SID160740486] gave G2 robust z-score 1.6; inactive.
After knock-down of ANKMY1 [SID160740487], the record shows G2 robust z-score -0.0052; inactive.
Depletion of ANKMY1 [SID160740488] came out at: G2 robust z-score 0.714; inactive.

2 entries from above in another layout:
| target gene | PubChem SID | G2 robust z-score | call |
| --- | --- | --- | --- |
| GPR78 | SID160724366 | -0.432 | inactive |
| PHRF1 | SID160746519 | 0.79 | inactive |
